Results published in paper PMC7413564, “Phase separation of Arabidopsis EMB1579 controls transcription, mRNA splicing, and development” (PLoS Biology, 2020).
Results are given in words; binding and its absence hold for the method and conditions named. For part of these data: Binding seen in cells or lysates may run through a third protein. For part of these data: Sequences can lack the tags named with a protein. Some entries that bind do so weakly or less than the wild type.

B1: pGADT7-MSI4 (protein, UniProt O22607 1-507)
chain: MESDEAAAVSPQATTPSGGTGASGPKKRGRKPKTKEDSQTPSSQQQSDVKMKESGKKTQQSPSVDEKYSQWKGLVPILYDWLANHNLVWPSLSCRWGPQLEQATYKNRQRLYLSEQTDGSVPNTLVIANCEVVKPRVAAAEHISQFNEEARSPFVKKYKTIIHPGEVNRIRELPQNSKIVATHTDSPDVLIWDVETQPNRHAVLGAANSRPDLILTGHQDNAEFALAMCPTEPFVLSGGKDKSVVLWSIQDHITTIGTDSKSSGSIIKQTGEGTDKNESPTVGPRGVYHGHEDTVEDVAFSPTSAQEFCSVGDDSCLILWDARTGTNPVTKVEKAHDADLHCVDWNPHDDNLILTGSADNTVRLFDRRKLTANGVGSPIYKFEGHKAAVLCVQWSPDKSSVFGSSAEDGLLNIWDYDRVSKKSDRAAKSPAGLFFQHAGHRDKVVDFHWNASDPWTIVSVSDDCETTGGGGTLQIWRMSDLIYRPEEEVVAELEKFKSHVMTCASKP
B2: red fluorescent protein (RFP)-MSI4 (protein, UniProt O22607 1-507)
chain: B1 chain
B3: CLuc-CLF (protein, UniProt P93831 1-902)
chain: MASEASPSSSATRSEPPKDSPAEERGPASKEVSEVIESLKKKLAADRCISIKKRIDENKKNLFAITQSFMRSSMERGGSCKDGSDLLVKRQRDSPGMKSGIDESNNNRYVEDGPASSGMVQGSSVPVKISLRPIKMPDIKRLSPYTTWVFLDRNQRMTEDQSVVGRRRIYYDQTGGEALICSDSEEEAIDDEEEKRDFLEPEDYIIRMTLEQLGLSDSVLAELASFLSRSTSEIKARHGVLMKEKEVSESGDNQAESSLLNKDMEGALDSFDNLFCRRCLVFDCRLHGCSQDLIFPAEKPAPWCPPVDENLTCGANCYKTLLKSGRFPGYGTIEGKTGTSSDGAGTKTTPTKFSSKLNGRKPKTFPSESASSNEKCALETSDSENGLQQDTNSDKVSSSPKVKGSGRRVGRKRNKNRVAERVPRKTQKRQKKTEASDSDSIASGSCSPSDAKHKDNEDATSSSQKHVKSGNSGKSRKNGTPAEVSNNSVKDDVPVCQSNEVASELDAPGSDESLRKEEFMGETVSRGRLATNKLWRPLEKSLFDKGVEIFGMNSCLIARNLLSGFKSCWEVFQYMTCSENKASFFGGDGLNPDGSSKFDINGNMVNNQVRRRSRFLRRRGKVRRLKYTWKSAAYHSIRKRITEKKDQPCRQFNPCNCKIACGKECPCLLNGTCCEKYCGCPKSCKNRFRGCHCAKSQCRSRQCPCFAADRECDPDVCRNCWVIGGDGSLGVPSQRGDNYECRNMKLLLKQQQRVLLGISDVSGWGAFLKNSVSKHEYLGEYTGELISHKEADKRGKIYDRENCSFLFNLNDQFVLDAYRKGDKLKFANHSPEPNCYAKVIMVAGDHRVGIFAKERILAGEELFYDYRYEPDRAPAWAKKPEAPGSKKDENVTPSVGRPKKLA
B4: CLuc-FIE (protein, UniProt Q9LT47 1-369)
chain: MSKITLGNESIVGSLTPSNKKSYKVTNRIQEGKKPLYAVVFNFLDARFFDVFVTAGGNRITLYNCLGDGAISALQSYADEDKEESFYTVSWACGVNGNPYVAAGGVKGIIRVIDVNSETIHKSLVGHGDSVNEIRTQPLKPQLVITASKDESVRLWNVETGICILIFAGAGGHRYEVLSVDFHPSDIYRFASCGMDTTIKIWSMKEFWTYVEKSFTWTDDPSKFPTKFVQFPVFTASIHTNYVDCNRWFGDFILSKSVDNEILLWEPQLKENSPGEGASDVLLRYPVPMCDIWFIKFSCDLHLSSVAIGNQEGKVYVWDLKSCPPVLITKLSHNQSKSVIRQTAMSVDGSTILACCEDGTIWRWDVITK
B5: pGADT7-CLF (protein, UniProt P93831 1-902)
chain: B3 chain
B6: pGADT7-FIE (protein, UniProt Q9LT47 1-369)
chain: B4 chain

Columns and labels:
[1] = target: T1, pGBKT7-EMB1579 (Arabidopsis thaliana) (UniProt F4IS91); experiment: two-hybrid; yeast two-hybrid, pGBKT7 bait and pGADT7 prey in S. cerevisiae strain Gold; growth on SD/-His/-Leu/-Trp/-Ade at 30°C for 3 days
T1 sequence: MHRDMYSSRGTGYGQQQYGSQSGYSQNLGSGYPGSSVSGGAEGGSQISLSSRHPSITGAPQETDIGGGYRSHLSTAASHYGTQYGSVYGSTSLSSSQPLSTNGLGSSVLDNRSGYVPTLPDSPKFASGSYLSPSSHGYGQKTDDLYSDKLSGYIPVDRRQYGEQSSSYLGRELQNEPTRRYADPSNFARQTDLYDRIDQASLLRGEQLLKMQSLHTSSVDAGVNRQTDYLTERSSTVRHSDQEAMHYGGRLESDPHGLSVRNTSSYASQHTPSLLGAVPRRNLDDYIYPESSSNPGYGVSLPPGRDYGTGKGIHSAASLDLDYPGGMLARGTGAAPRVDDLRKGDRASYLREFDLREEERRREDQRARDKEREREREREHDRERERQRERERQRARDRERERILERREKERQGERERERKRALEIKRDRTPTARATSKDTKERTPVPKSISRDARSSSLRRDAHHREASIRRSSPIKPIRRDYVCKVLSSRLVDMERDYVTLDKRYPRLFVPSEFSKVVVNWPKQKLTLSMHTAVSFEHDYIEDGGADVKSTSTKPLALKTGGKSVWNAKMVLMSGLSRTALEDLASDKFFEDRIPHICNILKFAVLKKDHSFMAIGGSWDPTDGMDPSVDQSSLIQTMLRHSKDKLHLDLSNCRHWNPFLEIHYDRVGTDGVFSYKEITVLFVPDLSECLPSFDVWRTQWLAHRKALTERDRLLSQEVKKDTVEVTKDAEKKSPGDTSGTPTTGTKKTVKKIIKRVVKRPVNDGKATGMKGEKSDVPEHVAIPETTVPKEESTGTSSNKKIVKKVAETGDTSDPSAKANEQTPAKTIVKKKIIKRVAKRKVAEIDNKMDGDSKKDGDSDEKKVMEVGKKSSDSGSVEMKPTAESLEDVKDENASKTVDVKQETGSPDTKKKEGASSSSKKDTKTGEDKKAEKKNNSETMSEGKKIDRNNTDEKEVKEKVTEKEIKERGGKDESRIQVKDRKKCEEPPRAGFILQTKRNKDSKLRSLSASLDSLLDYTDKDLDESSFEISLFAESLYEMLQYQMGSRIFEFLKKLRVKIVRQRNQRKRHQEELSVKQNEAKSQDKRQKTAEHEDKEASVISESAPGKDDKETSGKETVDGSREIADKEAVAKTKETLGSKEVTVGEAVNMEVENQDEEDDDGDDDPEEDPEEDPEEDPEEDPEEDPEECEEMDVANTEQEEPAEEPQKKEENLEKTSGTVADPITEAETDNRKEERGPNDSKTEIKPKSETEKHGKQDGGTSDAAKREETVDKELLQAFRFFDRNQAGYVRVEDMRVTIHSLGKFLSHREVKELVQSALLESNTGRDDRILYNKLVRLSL

[2] = target: T2, recombinant EMB1579-6×His protein (Arabidopsis thaliana) (UniProt F4IS91); experiment: recruitment into condensates from a root extract (confocal fluorescence microscopy); EMB1579 dialysed 1 hour with total protein extract of Arabidopsis roots expressing RFP-MSI4 in P buffer (25 mM Tris-HCl pH 8.0, 100 mM KCl, 2 mM DTT, 100 mg/ml PEG 3350); extract without EMB1579 as control; only the target purified
T2 sequence: T1 sequence

[3] = target: T3, EMB1579-NLuc (Arabidopsis thaliana) (UniProt F4IS91); experiment: split reporter; firefly split luciferase complementation imaging; NLuc and CLuc fusions co-infiltrated by Agrobacterium into N. benthamiana leaves, 60 hours, 1 mM D-luciferin
T3 sequence: T1 sequence

| binding [1] | binding [3] | also measured | Binder |
| --- | --- | --- | --- |
| binds | – | – | B1 |
| – | – | binding [2]: binds | B2 |
| – | no binding | – | B3 |
| – | no binding | – | B4 |
| no binding | – | – | B5 |
| no binding | – | – | B6 |
